Results reported in PubChem BioAssay AID504834 (National Center for Advancing Translational Sciences (NCATS), 2011).
The campaign covered roughly 320,000 compounds. About 22,000 (6.9%) were called active. The inconclusive results got no clear call from the source; some entries with a clear call stand among them for comparison. Calls follow the shape of the dose curve; as a rule, active = well fitted inhibition curve with a large enough effect; inconclusive = small, poorly fitted or top-dose-only effect, or another doubt; inactive = no such curve, though single readings can be large or run the other way. Potencies of inconclusive entries are doubtful fits and often do not repeat.

assay: Primary qHTS for delayed death inhibitors of the malarial parasite plastid, 96 hour incubation; conditions: P. falciparum luciferase reporter growth; series mostly up to 28.7 µM
Method in brief: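 Compounds incubated with erythrocytes infected by luciferase-expressing P. falciparum (2% hematocrit, 0.05% parasitemia final) for 96 hours, 37 C in 5% CO2. Growth inhibition scored as decreased luciferase luminescence.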
Potency is read from the fitted curve at half-maximal effect.

SMILES	Potency
Cc1ccc(OCC(=O)N(c2ccccn2)C2CCCCC2)c(C)c1	active: 7.38 µM
COc1cccc(CN2CCN(Cc3cccc(F)c3)CC2)c1	inconclusive: 14.7 µM [inhibitor, single point]
CCC1(C)OC(=O)NN(c2ccc(C)cc2)C1(C)O (stereo not given)	inactive
CCOc1cccc(CNc2ccc(O)cc2)c1OCc1ccc(Cl)cc1Cl	inconclusive: 13.1 µM [inhibitor, single point]
CNC(=S)NNc1ccccc1[N+](=O)[O-]	inactive
Cc1ccc(C(=O)NCC(=O)OC(C)C(=O)NC2CCCCC2C)cc1C (stereo not given)	inconclusive: 1.04 µM [inhibitor, partial curve, poor fit]
COc1cc2[nH]c(C(=O)N3CCc4ccccc43)cc2c(OC)c1OC	inactive
COC(=O)C1=C(c2ccc(C(C)=O)cc2)C[C@@H]2CC[C@H]1N2C(=O)N1CCC(O)(c2ccc(Cl)cc2)CC1	inconclusive: 2.94 µM [inhibitor, partial curve]
Cc1cccc2sc(NC(=O)CN(C)S(=O)(=O)c3ccc(Br)s3)nc12	inconclusive: 18.5 µM [inhibitor, single point]
O=C(CCOc1ccccc1)Nc1ccc(S(=O)(=O)Nc2ncccn2)cc1	inactive
Cc1cccc(NC(=O)CN2C(=O)NC3(CCCC3)C2=O)n1	inactive
CCN(c1ccccc1)S(=O)(=O)c1cccc(C(=O)NCCOc2ccccc2OC)c1	inconclusive: 0.0928 µM [inhibitor, full curve, poor fit]
CCN1CCN(c2nc(Nc3ccccc3F)nc(N)c2[N+](=O)[O-])CC1	inconclusive: 9.28 µM [inhibitor, partial curve, poor fit]
COc1ccc(OCCNc2cc(N3CCCCC3)ccc2[N+](=O)[O-])cc1	inconclusive: 0.586 µM [inhibitor, full curve, poor fit]
CN(C)/C=C1\C(=O)N(c2ccc([N+](=O)[O-])cc2)N=C1c1ccccc1	inactive
CCOC(=O)c1ccc(/[N+]([O-])=C/c2ccccc2)cc1	inactive
Oc1[nH]c2ccccc2c1C1=NCCCCC1	inconclusive: 11.7 µM [inhibitor, single point]
CC(=O)N1CCc2cc(S(=O)(=O)NCCC(=O)Nc3ccc4c(c3)OCCO4)ccc21	inconclusive: 2.94 µM [inhibitor, full curve, poor fit]
COC(=O)C1=C(c2ccc(-c3ccccc3)c(F)c2)C[C@@H]2CC[C@H]1N2C(=O)NC1CC1	active: 2.94 µM
COc1ccc(-c2nc(-c3ccccc3)c(-c3cc([N+](=O)[O-])ccc3C)[nH]2)cc1O	inconclusive: 10.4 µM [inhibitor, single point]
Cc1cc(C)nc(NC(=O)C2c3ccccc3Oc3ccccc32)n1	inconclusive: 18.5 µM [inhibitor, single point]
Cc1c(NC(=O)c2ccc(Cl)nc2)cccc1-c1nc2cccnc2s1	inconclusive: 4.15 µM [inhibitor, partial curve]
CCS(=O)(=O)Nc1cccc(C2=NN(S(=O)(=O)CC)C(c3ccccc3)C2)c1 (stereo not given)	inactive

SMILES	Potency
CCN1CCN(c2ccc(NC(=O)c3ccc([N+](=O)[O-])o3)cc2Cl)CC1	inconclusive: 18.5 µM [inhibitor, single point]
COC(=O)CSC(C)C(=O)Nc1nnc(C(C)C)s1 (stereo not given)	inactive
O=C1C(NS(=O)(=O)c2ccccc2)=C(N2CCN(c3ccc(F)cc3)CC2)C(=O)c2ccccc21	inconclusive: 4.65 µM [inhibitor, partial curve]
O=[N+]([O-])c1ccccc1S(=O)(=O)NCc1ccco1	inconclusive: 5.22 µM [inhibitor, partial curve]
CC1CCC(N2CCN(S(C)(=O)=O)CC2)CC1 (stereo not given)	inconclusive: 10.4 µM [inhibitor, single point]
CCCCn1nc2cc(C(=O)NCC3CC3)ccc2c1OCC	inconclusive: 11.7 µM [inhibitor, single point]
COc1ccc(-c2oc3ccccc3c2C(=O)OCc2ccccc2OC)cc1	inconclusive: 5.86 µM [inhibitor, partial curve, poor fit]
CCCS(=O)(=O)Nc1ccc(-c2cn3c(n2)SCC3)cc1	inactive
Cc1cccc(NC(=O)CC(=O)Nc2cccc(C)c2)c1	inactive
COc1ccc(CC(=O)Nc2nnc(SCC(=O)NCc3ccco3)s2)cc1OC	inconclusive: 6.57 µM [inhibitor, partial curve]
Cc1oc(-c2cc(Cl)cc(Cl)c2)cc1C(=O)NCCc1ccccc1	inconclusive: 10.4 µM [inhibitor, single point]
CC(C)OC(=O)c1nnn(-c2nonc2N)c1CN1CCc2ccccc2C1	inconclusive: 18.5 µM [inhibitor, single point]
CCN(CC)CCCNC(=O)C1CCN(c2ncnc3c2sc2cccc(F)c23)CC1	active: 1.85 µM
O=C(NCC(=O)N(CC1CCCO1)C(C(=O)NC1CCCCC1)c1ccccc1)c1cccs1 (stereo not given)	inconclusive: 1.31 µM [inhibitor, partial curve, poor fit]
c1ccc(-c2csc3ncnc(NCC4COc5ccccc5O4)c23)cc1 (stereo not given)	inconclusive: 13.1 µM [inhibitor, partial curve, poor fit]
O=C(O)c1ccc(NNC(=S)Nc2cc(C(F)(F)F)ccc2Cl)cc1	inactive
CC(C)Nc1oc(-c2cccc3ccccc23)nc1C#N	inactive
COc1cc2ncc(C(=O)c3ccccc3)c(N3CCN(Cc4ccccc4)CC3)c2cc1OC	inconclusive: 0.586 µM [inhibitor, full curve, poor fit]
O=C(CN(Cc1ccc(F)cc1)C(=O)Cn1nnc2ccccc21)NCC1CCCO1 (stereo not given)	inconclusive: 11.7 µM [inhibitor, partial curve, poor fit]
Cc1ccc(Sc2ccc(NC(=O)CCl)cc2)cc1C	active: 0.828 µM
Cc1c(C#N)c(NC(=O)CCl)n(Cc2ccccc2)c1C	active: 18.5 µM
CCCn1c(CCNc2nc(-c3ccc(Cl)c([N+](=O)[O-])c3)cs2)nc2cc(Cl)c(Cl)cc21	inactive

Some of these compounds in order of heavy-atom count, high to low.
SMILES	Potency
O=C1C(NS(=O)(=O)c2ccccc2)=C(N2CCN(c3ccc(F)cc3)CC2)C(=O)c2ccccc21	inconclusive: 4.65 µM [inhibitor, partial curve]
O=C(NCC(=O)N(CC1CCCO1)C(C(=O)NC1CCCCC1)c1ccccc1)c1cccs1 (stereo not given)	inconclusive: 1.31 µM [inhibitor, partial curve, poor fit]
O=C(CN(Cc1ccc(F)cc1)C(=O)Cn1nnc2ccccc21)NCC1CCCO1 (stereo not given)	inconclusive: 11.7 µM [inhibitor, partial curve, poor fit]
COc1ccc(CC(=O)Nc2nnc(SCC(=O)NCc3ccco3)s2)cc1OC	inconclusive: 6.57 µM [inhibitor, partial curve]
COc1ccc(-c2oc3ccccc3c2C(=O)OCc2ccccc2OC)cc1	inconclusive: 5.86 µM [inhibitor, partial curve, poor fit]
c1ccc(-c2csc3ncnc(NCC4COc5ccccc5O4)c23)cc1 (stereo not given)	inconclusive: 13.1 µM [inhibitor, partial curve, poor fit]
CCCCn1nc2cc(C(=O)NCC3CC3)ccc2c1OCC	inconclusive: 11.7 µM [inhibitor, single point]
CCCS(=O)(=O)Nc1ccc(-c2cn3c(n2)SCC3)cc1	inactive
Cc1ccc(Sc2ccc(NC(=O)CCl)cc2)cc1C	active: 0.828 µM
COC(=O)CSC(C)C(=O)Nc1nnc(C(C)C)s1 (stereo not given)	inactive
